Reference: US20260365655A1, “NEW USE OF JANUS KINASE (JAK)-DEGRADING AGENT BASED ON PROTEOLYSIS TARGETING CHIMERA (PROTAC)” (SHANGHAI SKIN DISEASE HOSPITAL, priority 2022, published 2026)

Tested on: mouse ear eczema model (spleen)
Test: Mouse ear eczema model: body weight, spleen weight and spleen index
Type: in vivo, BALB/c mice
Settings: group mean; day 11
Source text: (1) Preparation method of a JAK-PROTAC cream: the same as in Example 1.
(2) Positive therapeutic drug: a 0.050% dexamethasone acetate cream (manufacturer: Shanghai Skin Disease Hospital).
(3) Blank matrix: a matrix component produced after the active ingredient JAK-PROTAC was removed from the cream.
(4) Molding agent: solution of calcipotriol in ethanol (manufacturer: MACKLIN).
(1) The mice were randomly divided into a blank control group (6 mice) (Control), a model group (6 mice) (Model), a positive drug group (6 mice) (Positive), a Compound 1-treating group (0.15% JAK-PROTAC cream 1 for external use) (6 mice) (Treat 1), and a Compound 2-treating group (0.15% JAK-PROTAC cream 2 for external use) (6 mice) (Treat 2).
(2) Molding was conducted in the following manner: […]
After the mice were sacrificed, a spleen tissue was collected, dried with a filter paper to remove blood stains on a surface, and weighed for a wet weight. A spleen index was calculated as follows: spleen index=10,000×spleen weight (g)/body weight (g).
(2) A body weight and thicknesses of two ears of each mouse were recorded daily.
(3) After the experiment was completed, a spleen index of each mouse was calculated. […]

| SMILES | Body weight, mean value [g] |
| --- | --- |
| N#CC[C@H](C1CCCC1)n1cc(-c2nc(Nc3ccc(C(=O)NCCCCNc4cccc5c4C(=O)N(C4CCC(=O)NC4=O)C5=O)cc3)nc3[nH]ccc23)cn1 (some centres unmarked) [Compound 1] | 20.7667 |
| CCS(=O)(=O)N1CC(CC#N)(n2cc(-c3nc(Nc4ccc(C(=O)NCCCCNc5cccc6c5C(=O)N(C5CCC(=O)NC5=O)C6=O)cc4)nc4[nH]ccc34)cn2)C1 (centres unmarked) [Compound 2] | 19.7333 |
